# Values joined by “and” are separate entries in the source; they are usually repeats but may differ in a detail not shown here. Equal entries are not always repeated. Structures can show the parent of a compound that is named as a salt. ± gives the standard deviation of the averaged measurements. Some of the results follow. Part of the spread comes from offsets between plates or batches.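 Culture-activated primary human stellate myofibroblasts, where regained lipid droplets signal inactivation. Value: share of Hoechst-counted cells above a per-plate Bodipy cutoff, in duplicate wells, with DMSO negative and nortriptyline positive controls on each plate. Hits: a control-normalized score above the plate's top-tenth-percentile nortriptyline wells, or one of a plate's three best wells. Final well concentrations are not given.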
# Test system: primary human hepatic stellate cells (donor 1)
# Assay: percent Bodipy-positive cells; higher = more lipid droplet accumulation
# Conditions: 48 h
# Protocol: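 Primary lipid accumulation screen in primary human hepatic stellate cell myofibroblasts (donor 1, passage 8) in 384-well plates. 100 nL of library compound was pin-transferred into 30 µL medium in duplicate, and cells were treated for 48 h. The 'Scaled' score combines distance from plate baseline, toxicity and reproducibility penalties, and is normalised to nortriptyline (positive) and DMSO (negative) controls on each plate. A hit is defined as scaled >0.85 or among the top 3 wells per plate.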
# [1] = library stock concentration: 3.33 mM
# [2] = library stock concentration: 1 mM
# [3] = library stock concentration: 10 mM
smiles,measurement,setting,value
CNCc1ccc(C)c(NC(=O)c2ccc(Nc3nc(-c4ccccc4)c4ccccc4n3)cc2)c1,percent Bodipy-positive cells,[1],98.63 ± 0.54%
CCCCCCC=CCCCCCCCCCCOC(C)=O [11-cis Vaccenyl Acetate],percent Bodipy-positive cells,[2],15.7 ± 10%
N[C@@H](Cc1cc(I)c(Oc2cc(I)c(O)c(I)c2)c(I)c1)C(=O)O,percent Bodipy-positive cells,[3],25.6 ± 1.3%
N[C@@H](Cc1cc(I)c(Oc2cc(I)c(O)c(I)c2)c(I)c1)C(=O)O [Levothyroxine],percent Bodipy-positive cells,library stock concentration: 2.6 mM,10.7 ± 3.6%
N[C@@H](Cc1cc(I)c(Oc2cc(I)c(O)c(I)c2)c(I)c1)C(=O)O [L-Thyroxine],percent Bodipy-positive cells,[1],9.31 ± 3.4%
same,percent Bodipy-positive cells,[3],16.8 ± 12%
CC1(C)CCC(C)(C)c2cc(NC(=O)c3ccc(C(=O)O)cc3)ccc21 [Tamibarotene],percent Bodipy-positive cells,[1],8.9 ± 3.1%
same,percent Bodipy-positive cells,[3],29 ± 10%
CCCCC1C(=O)CCC2C(CC=CCCCC(=O)O)C(=O)CC12 (stereo not given) [Bicyclo Prostaglandin E2],percent Bodipy-positive cells,[2],16.7 ± 4.5%
O=C(CCC/C=C\C[C@@H]1[C@@H](/C=C/[C@@H](O)CCc2ccccc2)[C@H](O)C[C@@H]1O)NC(CO)CO [17-phenyl trinor Prostaglandin F2.alpha. serinol amide],percent Bodipy-positive cells,[2],18.2 ± 3.2%
O=C(O)C(O)Cc1ccc(O)c(O)c1 (stereo not given) [Sodium Danshensu],percent Bodipy-positive cells,[1],13.3 ± 3.2%
same,percent Bodipy-positive cells,[3],10.6 ± 4.1%
C[n+]1cc2c3c(ccc2c2ccc4cc5c(cc4c21)OCO5)OCO3 [Sanguinarine sulfate],percent Bodipy-positive cells,library stock concentration: 4.7 mM,97.65 ± 0.96%
same,percent Bodipy-positive cells,[3],100%
C[n+]1cc2c3c(ccc2c2ccc4cc5c(cc4c21)OCO5)OCO3 [Sanguinarine chloride],percent Bodipy-positive cells,[3],87.3 ± 3.8%
Cc1cc(/C=C2/SC(=S)NC2=O)c(C)n1-c1cccnc1 [Optovin],percent Bodipy-positive cells,[1],34.6 ± 10%
same,percent Bodipy-positive cells,[3],31.1 ± 4.3%
Cc1cc(C)c(Nc2ccnc(Nc3ccc(C#N)cc3)n2)c(C)c1 [Dapivirine (TMC120)],percent Bodipy-positive cells,[1],33.8 ± 5.2%
CCN(CC)CCCCCCCCOC(=O)c1cc(OC)c(OC)c(OC)c1.Cl [TMB-8 hydrochloride],percent Bodipy-positive cells,[3],93.1 ± 1.7%
CC(C(O)c1ccc(O)cc1)N1CCC(Cc2ccccc2)CC1.CC(C(O)c1ccc(O)cc1)N1CCC(Cc2ccccc2)CC1.O=C(O)C(O)C(O)C(=O)O (stereo not given) [Ifenprodil tartrate],percent Bodipy-positive cells,[3],94.5 ± 0.62%
O=C(Nc1cccc(Nc2nccc(Nc3cccc(C(F)(F)F)c3)n2)c1)C1CC1 [Aurora Kinase Inhibitor III],percent Bodipy-positive cells,[1],10.3 ± 5%
Nc1ncnc2c1ncn2[C@@H]1O[C@H](CO)[C@@H](O)[C@H]1O [Adenosine],percent Bodipy-positive cells,[1],17.5 ± 6.5%
same,percent Bodipy-positive cells,library stock concentration: 7.5 mM,1.5 ± 0.57%
Clc1ccc(CSC(Cn2ccnc2)c2ccc(Cl)cc2Cl)cc1 (stereo not given) [Sulconazole Nitrate],percent Bodipy-positive cells,[1],15.3 ± 12%
same,percent Bodipy-positive cells,[3],90.947 ± 0.053%
Clc1ccc(CSC(Cn2ccnc2)c2ccc(Cl)cc2Cl)cc1 (stereo not given) [Sulconazole nitrate],percent Bodipy-positive cells,,17.2 ± 2.5%
same,percent Bodipy-positive cells,[3],72.5 ± 8.8%
O=C(c1ccc(Nc2nccc(-c3cc4ccccc4s3)n2)cc1)N1CCC(N2CCCC2)CC1 [IKK-16 (IKK Inhibitor VII)],percent Bodipy-positive cells,[3],100%
O=C(c1ccc(Nc2nccc(-c3cc4ccccc4s3)n2)cc1)N1CCC(N2CCCC2)CC1,percent Bodipy-positive cells,[3],94.1 ± 8.3%
CCN1CCC(n2cc(CNc3cc(Cl)c4ncc(C#N)c(Nc5ccc(F)c(Cl)c5)c4c3)nn2)CC1,percent Bodipy-positive cells,[3],99.88 ± 0.18%
O=C(/C=C/c1ccccc1)NC(NC(=S)Nc1cccc2cccnc12)C(Cl)(Cl)Cl (stereo not given) [Salubrinal],percent Bodipy-positive cells,[1],11.6 ± 4.6%
same,percent Bodipy-positive cells,[3],24.7% and 6.22%
CC(=O)O[C@@]12CO[C@@H]1C[C@H](O)[C@@]1(C)C(=O)[C@H](O)C3=C(C)[C@@H](OC(=O)[C@H](O)[C@@H](NC(=O)OC(C)(C)C)c4ccccc4)C[C@@](O)([C@@H](OC(=O)c4ccccc4)[C@H]21)C3(C)C [Docetaxel],percent Bodipy-positive cells,[1],9.9 ± 2.3%
same,percent Bodipy-positive cells,[3],8.34 ± 0.11%
CC(=O)O[C@@]12CO[C@@H]1C[C@H](O)[C@@]1(C)C(=O)[C@H](O)C3=C(C)[C@@H](OC(=O)[C@H](O)[C@@H](NC(=O)OC(C)(C)C)c4ccccc4)C[C@@](O)([C@@H](OC(=O)c4ccccc4)[C@H]21)C3(C)C,percent Bodipy-positive cells,[3],7.44 ± 3.4%
CCCCCCCCCCCCCCCCCC(=O)OCC [Stearic Acid ethyl ester],percent Bodipy-positive cells,[2],9.48 ± 6.4%
COc1ccccc1N1CCN(CCN(C(=O)C2CCCCC2)c2ccccn2)CC1,percent Bodipy-positive cells,[1],9.01 ± 6.9%
same,percent Bodipy-positive cells,[3],18.9% and 31%
CN1C(=O)CC(c2ccccc2)C1=O (stereo not given) [Phensuximide],percent Bodipy-positive cells,,6.28 ± 0.49%
CN1C(=O)CC(c2ccccc2)C1=O (stereo not given),percent Bodipy-positive cells,[3],30 ± 9%
Nc1ccn([C@@H]2O[C@H](CO)[C@@H](O)C2(F)F)c(=O)n1 [Gemcitabine],percent Bodipy-positive cells,[1],22.7 ± 6.3%
same,percent Bodipy-positive cells,[3],38.7 ± 3.7%
Nc1ccn([C@@H]2O[C@H](CO)[C@@H](O)C2(F)F)c(=O)n1 [Gemcitabine hydrochloride],percent Bodipy-positive cells,[3],55.6 ± 5.7%
Nc1ccn([C@@H]2O[C@H](CO)[C@@H](O)C2(F)F)c(=O)n1 [Gemcitabine HCl],percent Bodipy-positive cells,library stock concentration: 7.6 mM,17.3 ± 8%
CC(O)C(=O)O.N (stereo not given),percent Bodipy-positive cells,[3],20.4 ± 3.3%
Fc1ccc(Cl)cc1-c1nc(Nc2ccncc2)c2nccnc2n1,percent Bodipy-positive cells,[3],6.14 ± 1.8%
CO[C@H]1C[C@@H]2CC[C@@H](C)[C@@](O)(O2)C(=O)C(=O)N2CCCC[C@H]2C(=O)O[C@H]([C@H](C)C[C@@H]2CC[C@@H](OCCO)[C@H](OC)C2)CC(=O)[C@H](C)/C=C(\C)[C@@H](O)[C@@H](OC)C(=O)[C@H](C)C[C@H](C)/C=C/C=C/C=C/1C,percent Bodipy-positive cells,library stock concentration: 80 uM,7.76 ± 0.58%
same,percent Bodipy-positive cells,library stock concentration: 400 uM,14 ± 6.8%
same,percent Bodipy-positive cells,library stock concentration: 2 mM,7.71 ± 3.4%
same,percent Bodipy-positive cells,[3],19.5 ± 4%

# As a short view, part of the list above.
smiles,measurement,setting,value
CNCc1ccc(C)c(NC(=O)c2ccc(Nc3nc(-c4ccccc4)c4ccccc4n3)cc2)c1,percent Bodipy-positive cells,[1],98.63 ± 0.54%
CCCCCCC=CCCCCCCCCCCOC(C)=O [11-cis Vaccenyl Acetate],percent Bodipy-positive cells,[2],15.7 ± 10%
N[C@@H](Cc1cc(I)c(Oc2cc(I)c(O)c(I)c2)c(I)c1)C(=O)O,percent Bodipy-positive cells,[3],25.6 ± 1.3%
N[C@@H](Cc1cc(I)c(Oc2cc(I)c(O)c(I)c2)c(I)c1)C(=O)O [Levothyroxine],percent Bodipy-positive cells,library stock concentration: 2.6 mM,10.7 ± 3.6%
N[C@@H](Cc1cc(I)c(Oc2cc(I)c(O)c(I)c2)c(I)c1)C(=O)O [L-Thyroxine],percent Bodipy-positive cells,[1],9.31 ± 3.4%
same,percent Bodipy-positive cells,[3],16.8 ± 12%
CC1(C)CCC(C)(C)c2cc(NC(=O)c3ccc(C(=O)O)cc3)ccc21 [Tamibarotene],percent Bodipy-positive cells,[1],8.9 ± 3.1%
same,percent Bodipy-positive cells,[3],29 ± 10%
CCCCC1C(=O)CCC2C(CC=CCCCC(=O)O)C(=O)CC12 (stereo not given) [Bicyclo Prostaglandin E2],percent Bodipy-positive cells,[2],16.7 ± 4.5%
O=C(CCC/C=C\C[C@@H]1[C@@H](/C=C/[C@@H](O)CCc2ccccc2)[C@H](O)C[C@@H]1O)NC(CO)CO [17-phenyl trinor Prostaglandin F2.alpha. serinol amide],percent Bodipy-positive cells,[2],18.2 ± 3.2%
